In PubChem BioAssay AID1347076 (National Center for Advancing Translational Sciences (NCATS), 2019):
In all, about 400,000 compounds went through this assay and about 13,000 (3.2%) were called active. This list was built around the results that the source calls inconclusive (neither active nor inactive); the mix of calls is not that of the screen. Calls come from the whole dose curve; as a rule, active = well fitted cell-killing curve with a large enough effect; inconclusive = small, poorly fitted or top-dose-only effect, or effect the other way; inactive = flat fitted curve, though single readings scatter. A potency beside an inconclusive call is a rough fit, not a confirmed value.

experiment: qHTS assay for MDR1-selective chemotherapeutics: Primary screen using the drug-selected MDR subline cells KB-V1; details: KB-V1 MDR cells viability, CellTiter-Glo, 72 h; series mostly up to 46.1 µM; note: nearly all actives have a fitted effect of over 60% in size
Summary of the method: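 Cells of the MDR subline KB-V1 are plated, dosed with compound at multiple concentrations, and incubated 72 h at 37 degrees C; CellTiter-Glo is then added and luminescence read after 10 min.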
Potency is the fitted concentration of half-maximal effect.

Row | Compound | Potency
1 | Cc1ccc(/C=N/N=C/c2ccc(C)s2)s1 | inconclusive: 29.1 µM [rising, single point]
2 | COc1cccc(-c2nc(CSCC(=O)N3CCc4ccccc43)c(C)o2)c1 | active: 10.3 µM
3 | O=C1c2ccccc2C(=O)N1Cc1cnc(N2CCN(c3ccccc3)CC2)s1 | inconclusive: 10.3 µM [cytotoxic, partial curve, poor fit]
4 | CCCOc1ccc(C2c3c(-c4ccccc4O)n[nH]c3C(=O)N2CCCOCC)cc1OCC (configuration not stated) | inconclusive: 29.1 µM [cytotoxic, single point]
5 | N#Cc1cccc(NC(=O)c2cc(C3CCCCN3C(=O)CCc3ccccc3)on2)c1 (configuration not stated) | inconclusive: 29.1 µM [cytotoxic, single point]
6 | CC(C)n1cc(CN2CCC(C(=O)Nc3cccc(-c4cccc(Cl)c4)c3)CC2)cn1 | inconclusive: 32.6 µM [cytotoxic, partial curve, poor fit]
7 | O=C(c1ccccc1)c1coc2ccc(O)c(Cl)c12 | inconclusive: 25.9 µM [cytotoxic, single point]
8 | CC(NC(=O)NNC(N)=S)(C(F)(F)F)C(F)(F)F | inactive
9 | COc1ccc2oc(=O)c(C(=O)NCc3ccccc3)cc2c1 | inactive
10 | COc1ccc(-c2nc3ncccn3c2Nc2ccccc2)cc1 | inconclusive: 29.1 µM [cytotoxic, single point]
11 | COc1ccc(C(=O)N2CCCc3ccccc32)cc1Br | inconclusive: 16.4 µM [cytotoxic, single point]
12 | CN(C(=O)C1CC1)C1CCS(=O)(=O)C1 (configuration not stated) | inactive
13 | Cc1ccc(N(Cc2cc3ccccc3[nH]c2=O)C(=O)c2cccs2)cc1 | inconclusive: 16.4 µM [cytotoxic, partial curve, poor fit]
14 | CCC(=O)N1CCCc2cc(S(=O)(=O)N3CCC(C(=O)Nc4ccccc4CC)CC3)ccc21 | inconclusive: 0.184 µM [rising, full curve]
15 | N#Cc1ccc(Cl)cc1NC(=O)CNCc1cccs1 | inconclusive: 0.58 µM [cytotoxic, full curve]
16 | COc1cc(NC(=O)COc2cccc3c2OC(C)(C)C3)cc(OC)c1OC | inactive
17 | c1ccc2c(NCC3CCCO3)nc(-c3ccncc3)nc2c1 (configuration not stated) | inconclusive: 8.91 µM [cytotoxic, partial curve, poor fit]
18 | Cc1cccc(CNC(=O)Cc2ccc(NC(=O)N3CCCCc4ccccc43)cc2)c1 | inactive
19 | COc1ccc(C2CC(c3cccs3)=NN2c2nc(C)c(C(C)=O)s2)cc1OC (configuration not stated) | inconclusive: 8.2 µM [cytotoxic, partial curve, poor fit]
20 | CCOc1ccc(-c2cn3c(n2)sc2cc(C(=O)NCCCN(CC)CC)ccc23)cc1 | inconclusive: 29.1 µM [cytotoxic, single point]
21 | CCCCNC(=O)C(Sc1ccccc1)c1ccccc1 (configuration not stated) | active: 14.6 µM

Row | Compound | Potency
22 | C[C@H]1CN([C@@H](C)CO)C(=O)CCCn2cc(nn2)CO[C@@H]1CN(C)C(=O)Nc1cccc(F)c1 | inconclusive: 29.1 µM [rising, single point]
23 | CCOC(=O)c1[nH]c(C)c(CCC(=O)NC(C)c2ccccc2)c1C (configuration not stated) | inconclusive: 29.1 µM [rising, single point]
24 | COc1ccc(/C=C/C(=O)c2cc(F)ccc2OC(=O)c2ccccc2)cc1OC | inconclusive: 5.17 µM [cytotoxic, partial curve, poor fit]
25 | Cc1ccc(NC(=O)C(=O)NCCCN2CC(C(=O)O)CC2=O)cc1 (configuration not stated) | inconclusive: 3.26 µM [rising, partial curve, poor fit]
26 | CC(=O)C1=C(C)NC(SCc2ccc(C#N)cc2)=C(C#N)C1c1ccco1 (configuration not stated) | inconclusive: 14.6 µM [cytotoxic, partial curve, poor fit]
27 | COc1ccc(C(=O)Nc2ccc(C)c(S(=O)(=O)N3CCCCCC3)c2)cc1 | inconclusive: 2.31 µM [cytotoxic, full curve, poor fit]
28 | COc1ccccc1C(CNC(=O)c1ccc(S(=O)(=O)NCc2ccco2)cc1)N(C)C (configuration not stated) | inactive
29 | O=C(Nc1ccc(N2CCCC2)c(Cl)c1)c1ccc([N+](=O)[O-])o1 | inconclusive: 29.1 µM [cytotoxic, single point]
30 | COc1ccc(CCn2c(N)c(C#N)c3nc4ccccc4nc32)cc1OC | inconclusive: 18.4 µM [rising, single point]
31 | Cc1ccc(C(=O)CSc2cnc3ccccc3n2)cc1C | inconclusive: 18.4 µM [cytotoxic, single point]
32 | COc1cccc(-c2nc(CS(=O)(=O)CC(=O)NCCc3ccc(OC)c(OC)c3)c(C)o2)c1 | inconclusive: 10.3 µM [cytotoxic, partial curve, poor fit]
33 | CC1Nc2ncnc(N3CCc4ccccc4C3)c2N(Cc2ccc(Cl)cc2)C1=O (configuration not stated) | inconclusive: 29.1 µM [cytotoxic, single point]
34 | C=CCNC(=O)/C(=C/c1ccc(Br)cc1)NC(=O)c1ccccc1OC | inconclusive: 7.31 µM [cytotoxic, partial curve, poor fit]
35 | CN1CCN(CCCNC(=O)c2ccc(NC(=O)C3=CSCCO3)cc2)CC1 | inactive
36 | COc1ccc(CCN2C(=O)NC(NC(=O)CCc3ccccc3)(C(F)(F)F)C2=O)cc1OC (configuration not stated) | active: 20.6 µM
37 | CCn1c(C(C)NC(C)=O)nc2ccccc21 (configuration not stated) | inconclusive: 0.651 µM [rising, full curve]
38 | C=CCOc1c(Cl)cc(C(=S)N2CCCC2)cc1OCC | active: 9.2 µM
39 | COc1cc(/C=C/c2ccc3cccc(O)c3n2)cc(Br)c1OC | inconclusive: 7.31 µM [cytotoxic, partial curve]
40 | CN(NC(=O)c1cccc(Cl)c1)c1nc(-c2ccccc2)nnc1C(F)(F)F | inconclusive: 29.1 µM [cytotoxic, single point]
41 | Oc1c(C=Nc2ccc(Cl)cn2)sc2ccccc12 | inconclusive: 25.9 µM [cytotoxic, partial curve, poor fit]
42 | Cc1ccc(S(=O)(=O)N(CC(=O)N2CCN(c3ccccc3F)CC2)C2CCCCC2)cc1 | active: 4.61 µM

For convenience, part of the list above:
Row | Compound | Potency
36 | COc1ccc(CCN2C(=O)NC(NC(=O)CCc3ccccc3)(C(F)(F)F)C2=O)cc1OC (configuration not stated) | active: 20.6 µM
37 | CCn1c(C(C)NC(C)=O)nc2ccccc21 (configuration not stated) | inconclusive: 0.651 µM [rising, full curve]
38 | C=CCOc1c(Cl)cc(C(=S)N2CCCC2)cc1OCC | active: 9.2 µM
